Test results as given in patent US6060304A, “Method of producing conjugated fatty acids” (Wisconsin Alumni Research Foundation, priority 1998, dated 2000).
At least one structure is not confirmed: it was looked up by name or label, or the drawing left a doubt.

Tested on: linoleate isomerase of L. reuteri PYR8
Assay: Substrates tested with cells of L. reuteri PYR8, product analysed by GC
Type: biochemical, Lactobacillus reuteri PYR8 (ATCC 55739)
Settings: for Major Products (putative) of the linoleate isomerase: 0.2 mg substrate reacted with 20 mg PYR8 cells, GC; for Activity as substrate of the Lactobacillus: unsaturated fatty acids lacking double bonds at both positions 9 and 12
Procedure: ^a Each substrate (0.2 mg) was reacted with the cells (20 mg) of L.
reuteri PYR8, and product was analyzed by GC, as described in methods.
Fatty acids were extracted with chloroform:methanol (2:1) and 4% KCl. Hexadecanoic acid (HDA) was added as an internal standard. […] Fatty acid peaks were separated with a fused silica capillary column, 60 m by […] I.D. with a 0.25 μm film thickness (Supelco Park, Bellefonte, Pa.).

SMILES | Major Products (putative) of the linoleate isomerase | Activity as substrate of the Lactobacillus | Activity of the organism / consumption relative to other substrates (effect of extra double bonds at position 6 and/or 15)
CCC=CCC=CCC=CCCCCCCCCCC(=O)O [Eicosatrienoic acid (20:3Δ^11,14,17), Eicosatrienoic acid] | None | Inactive | –
CC/C=C\C/C=C\C/C=C\C/C=C\CCCCC(=O)O [Octadecatetraenoic acid] | cis6, cis9, trans11, | – | consumed faster than gamma-linolenic acid, but slower than linoleic acid
CCCCCC=CCC=CCCCCCCCCCC(=O)O [Eicosadienoic acid] | None | Inactive | –
CCCCCC=CCC=CCC=CCCCCCCC(=O)O [Eicosatrienoic acid (20:3Δ^8,11,14), Eicosatrienoic acid] | None | Inactive | –
